# Source: PubChem BioAssay AID504744 (Drosophila RNAi Screening Center, 2011)
# Purpose: 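Find genes whose loss alters insulin-driven dAkt phosphorylation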 (primary screen)
# Cells: Drosophila Kc167 cells
# Reagent: long dsRNA against Drosophila genes, 250 ng dsRNA per well of a 384-well plate
# Duration: 3 days of knock-down, then overnight serum-free starvation before stimulation
# Conditions: bovine insulin at 387 nM for 10 minutes after 12 h without serum
# Detection: 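Per-well phospho-dAkt level from an in-cell fluorescent antibody stain, divided by a DNA-dye signal; log2 residuals turned into z-scores that take cell number into account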
# Active means: 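Hit in the insulin screen when the two-replicate mean z-score is more extreme than plus or minus 2.5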
# In all, the deposit lists about 23,000 reagents; shown is a random part of those that have a named target and a result. Of all reagents, 98 (0.43%) were called active. 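Only hit calls are given; the phospho-dAkt signals, z-scores and hit direction were not deposited.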 Names joined by + are all predicted targets of the reagent.
gene,DRSC id,outcome
Egfrap,DRSC09963,inactive
Egfrap,DRSC09964,inactive
Elovl7,DRSC15452,inactive
Elovl7,DRSC21570,inactive
mRpL21,DRSC11100,inactive
Pglym87,DRSC15252,inactive
CG2841,DRSC17699,inactive
CG2841,DRSC18824,inactive
CG2841,DRSC22106,inactive
CG3347,DRSC00597,inactive
CatB,DRSC03194,inactive
Herp,DRSC02394,inactive
GstD1,DRSC16683,inactive
cnir,DRSC00499,inactive
gw,DRSC17135,inactive
gw,DRSC17160,inactive
ND2 (retired record),DRSC21274,inactive
CG5556,DRSC00687,inactive
CG3702,DRSC00628,inactive
CG34046 (retired record),DRSC14075,inactive
Cdc7,DRSC18428,inactive
Cdc7,DRSC18429,inactive
Cdc7,DRSC22133,inactive
Dpy-30L2,DRSC08205,inactive
CG14621,DRSC20635,inactive
CG32606 (retired record),DRSC19001,inactive
CG32606 (retired record),DRSC19371,inactive
CG32606 (retired record),DRSC19372,inactive
CG32606 (retired record),DRSC19373,inactive
CG33143,DRSC04151,inactive
CG33143,DRSC04454,active
babo,DRSC07581,inactive
Obp56e,DRSC07188,inactive
COX8,DRSC11814,inactive
CG34038,DRSC04039,inactive
CG34234 + Dh44-R2,DRSC07278,inactive
Syt12,DRSC19359,inactive
COX6AL2,DRSC10082,inactive
cta,DRSC03769,inactive
Dysb,DRSC10730,inactive
Dim1,DRSC00563,inactive
knk,DRSC15993,inactive
CG11816,DRSC19428,inactive
CG8617,DRSC07223,inactive
CR40441,DRSC22916,inactive
CG3123,DRSC00570,inactive
CG1924,DRSC19823,inactive
Rpt6R,DRSC15431,inactive
CG17816,DRSC15277,inactive
CG8046,DRSC07059,inactive
upSET,DRSC11051,inactive
CG10175,DRSC13628,inactive
CG10175,DRSC14200,inactive
CG10175,DRSC21981,inactive
CG8997,DRSC01900,inactive
sa,DRSC11649,inactive
robo2,DRSC00377,inactive
robo2,DRSC00378,inactive
robo2,DRSC00686,inactive
robo2,DRSC00691,inactive
Nup214,DRSC04421,inactive
gpp,DRSC12515,inactive
gpp,DRSC12516,inactive
MESK2 + CG10494,DRSC04259,inactive
CG5888,DRSC01929,inactive
Jig,DRSC14974,inactive
CG12278,DRSC14494,inactive
CG15631,DRSC00466,inactive
Met75Ca + Met75Cb,DRSC09549,inactive
Met75Ca + Met75Cb,DRSC11221,inactive
CG3841,DRSC02730,inactive
Sbat,DRSC00160,inactive
m,DRSC20181,inactive
Dnah3,DRSC08130,inactive
Dnah3,DRSC08513,inactive
CG2157,DRSC19836,inactive
CG15468,DRSC18051,inactive
CG5510,DRSC15823,inactive
CG10919,DRSC14283,inactive

No new results follow: 26 of the entries above.
gene,DRSC id,outcome
CG17816,DRSC15277,inactive
CG8046,DRSC07059,inactive
upSET,DRSC11051,inactive
CG10175,DRSC13628,inactive
CG10175,DRSC14200,inactive
CG10175,DRSC21981,inactive
CG8997,DRSC01900,inactive
sa,DRSC11649,inactive
robo2,DRSC00377,inactive
robo2,DRSC00378,inactive
robo2,DRSC00686,inactive
robo2,DRSC00691,inactive
Nup214,DRSC04421,inactive
gpp,DRSC12515,inactive
gpp,DRSC12516,inactive
MESK2 + CG10494,DRSC04259,inactive
CG5888,DRSC01929,inactive
Jig,DRSC14974,inactive
CG12278,DRSC14494,inactive
CG15631,DRSC00466,inactive
Met75Ca + Met75Cb,DRSC09549,inactive
Met75Ca + Met75Cb,DRSC11221,inactive
CG3841,DRSC02730,inactive
Sbat,DRSC00160,inactive
m,DRSC20181,inactive
Dnah3,DRSC08130,inactive

Further records follow:
gene,DRSC id,outcome
sigmar,DRSC04449,inactive
Timp,DRSC17082,inactive
CG1231,DRSC08267,inactive
Ranbp21,DRSC19447,inactive
prel,DRSC07271,inactive
stx,DRSC18442,inactive
stx,DRSC18443,inactive
lolal,DRSC06948,inactive
Pepck2,DRSC06013,inactive
CG33464 (retired record),DRSC22936,inactive
Sqor,DRSC08453,inactive
barc,DRSC11792,inactive
CG3386,DRSC08566,inactive
nAChRbeta1,DRSC08097,inactive
nAChRbeta1,DRSC08728,inactive
SMC6,DRSC15829,inactive
CG13220,DRSC06342,inactive
CG13192,DRSC06317,inactive
CG42322,DRSC15112,inactive
CG42322,DRSC15113,inactive
CG42322,DRSC15114,inactive
Ppi1,DRSC15421,inactive
CG31213,DRSC14312,inactive
CG31213,DRSC15647,inactive
l(2)gl,DRSC00825,inactive
Hmgcr,DRSC16704,inactive
mTTF,DRSC01909,inactive
Srx,DRSC20005,inactive
trn,DRSC11407,inactive
fz2,DRSC09595,inactive
fz2,DRSC10087,inactive
fz2,DRSC11349,inactive
CG7798,DRSC07047,inactive
CG8560,DRSC10994,inactive
CG10343,DRSC02041,inactive
CG10077,DRSC09691,inactive
CG12934,DRSC06247,inactive
Cpr49Ad,DRSC07284,inactive
Kif19A,DRSC16576,inactive
Rab6,DRSC03404,inactive
CG15719,DRSC19685,inactive
His3.3B,DRSC17773,inactive
His3.3B,DRSC18673,inactive
Evi5,DRSC19421,inactive
hng1,DRSC04555,inactive
CG3544,DRSC00613,inactive
CG12301,DRSC09875,inactive
t-Grip84,DRSC10904,inactive
Lcp1,DRSC07455,inactive
CG14130,DRSC10134,inactive
CG17807,DRSC04296,inactive
Oseg2,DRSC08343,inactive
CG12511,DRSC02171,inactive
Rassf,DRSC15612,inactive
t,DRSC17815,inactive
nSyb,DRSC08727,inactive
CG8840,DRSC00713,inactive
Naa20B,DRSC21442,inactive
Karl,DRSC19883,inactive
opm,DRSC20141,inactive
opm,DRSC22135,inactive
jeb,DRSC06305,inactive
jeb,DRSC06307,inactive
Shark,DRSC07680,inactive
Nup188,DRSC21830,inactive
Nurf-38,DRSC04629,inactive
CG12948,DRSC14576,inactive
cib,DRSC18660,inactive
ix,DRSC06325,inactive
mam,DRSC05468,inactive
mam,DRSC07648,inactive
IntS4,DRSC17810,inactive
CG13587,DRSC04223,inactive
CG13613,DRSC14616,inactive
Gem3,DRSC11144,active
AGO2,DRSC09999,inactive
AGO2,DRSC10847,inactive
EbpIII,DRSC04638,inactive
